Where a name gives a salt, the structure may show the parent alone. Read-outs that look alike come from different tables or passages of the source. Where no unit stands, none is given here, and values compare only within one read-out.
Tested on: Zebra Fish
Assay type: in vivo
Settings: fed 6 days, N=4
Experimental: Following EPA Method 7473, a total of 44 Zebra fish were randomized into four one gallon tanks and fed an experimental or control diet for 6 days. On the seventh day the fish were not fed so that any food being digested would have been absorbed or eliminated. The fish were fed 1.0 gram of food twice a day the first day. On the second day the fish were fed 0.5 grams twice a day. On days 3-6 the fish were fed 0.5 gram once a day.
The control and experimental feed was prepared using:
9.8 g. Frozen Thawed Brine Shrimp
The corn starch and water were boiled for 2 minutes then mixed with the remaining ingredients. The basic food was divided into four groups. The study groups consisted of: the control (Group C), an experimental group in which phytic acid di-sodium salt was added to the feed at 5% by […] (Group A), an experimental group in which 15 μg mercuric iodide salt per gram of food was added (Group B), and lastly Group D in which fish were fed the above stated amounts of mercuric iodide salt and phytic acid di-sodium salt.
The analysis was conducted by a contracted company, Northwest Pacific Labs. Samples were stratified by treatment and randomly sampled. A test of atomic absorption was used to determine absorbed mercury, after calibrating the instrument.

| SMILES | Total Hg Wet Weight, Mean (Group B: 15 micrograms mercuric iodide salt per gram food, no phytic acid) | Total Hg Wet Weight, Mean (Group A: phytic acid di-sodium salt 5% per wt. in feed, no mercury added) |
| --- | --- | --- |
| [I][Hg][I] [Mercury Iodide Salt, mercuric iodide salt, reference compound] | .1478 |  |
| O=P(O)(O)O[C@H]1[C@H](OP(=O)(O)O)[C@@H](OP(=O)(O)O)[C@H](OP(=O)(O)O)[C@@H](OP(=O)(O)O)[C@H]1OP(=O)(O)O [Phytic Acid, phytic acid] |  | .0621 |
